Experimental data reported in patent US20210403565A1.
These are yes or no findings as the source states them, for the method shown. Some results given as binding are weak or reduced against the parent protein; the word gives no strength. Blank lines part the entries; values can stand above or below the binder they belong to.

Sequences of proteins named here, by UniProt entry; tags and fusion partners are left off. A change or cut given only in a name is not applied to a line headed by its entry. A line that says so, or that is headed by a name, gives the form on record, which may keep a tag or linker.
cynomolgus CTLA4 expressed on the cell surface of CHO cells (G7PL88, form named): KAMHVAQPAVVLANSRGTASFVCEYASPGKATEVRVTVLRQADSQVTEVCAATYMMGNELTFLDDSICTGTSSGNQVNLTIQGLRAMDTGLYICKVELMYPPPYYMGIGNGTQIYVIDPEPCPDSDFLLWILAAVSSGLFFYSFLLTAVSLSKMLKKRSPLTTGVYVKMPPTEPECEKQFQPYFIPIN

Columns and labels:
[1] = biological target: cynomolgus CTLA4 expressed on the cell surface of CHO cells (cynomolgus) (UniProt G7PL88); test: FACS saturation on CHO cells expressing cynomolgus CTLA4, pH 7.4
[2] = biological target: cynomolgus CTLA4 expressed on the cell surface of CHO cells (cynomolgus) (UniProt G7PL88); test: FACS on CHO-cynoCTLA4 cells
[3] = biological target: cynomolgus CTLA4 expressed on the cell surface of CHO cells (cynomolgus) (UniProt G7PL88); test: FACS on CHO-cynoCTLA4 cells, pH 7.4

binding [1]: binds
binding [2]: binds
binding [3]: binds
B1: BA-087-05-19 (antibody, V domains shown)
VH: EVQLVESGGGLVQPGGSLRLSCAASGFTFSHYTMHWVRQAPGKGLEWVSFISYDGNNKYYADSVKGRFTISRDNSKNTLYLQMNSLRAEDTAVYYCARTGWLGPFDYWGQGTLVTVSS
VL: AIQLTQSPSSLSASVGDRVTITCRASQYVGSSYLAWYLQKPGQSPQLLIYGAFSRATGIPARFSGSGSGTEFTLTISSLQSEDFAVYYCQQDGSSPWTFGQGTKVEIK

binding [1]: binds
binding [2]: binds
binding [3]: binds
B2: BA-087-08-32 (antibody, V domains shown)
VH: EVQLVQSGAEVKKPGATVKISCKVSGFTFSHYTMHWIRQSPSRGLEWLGFISYDGNYKYYADSVKGRFTISRDNAKNSLYLQMNSLRAEDTAVYYCARTGWLGPFDYWGQGTLVTVSS
VL: EIVMTQSPATLSVSPGERATLSCRASQSVGSSYLAWYQQKPGKAPKLLIYGAFSRATGVPSRFSGSGSGTDFTLTISSLQPEDFATYYCQQDGSSPWTFGQGTKVEIK
